Measurements taken from PMC1557541.
No constants are given. Whether binding was seen depends on the method and setting. Binding seen in cells or lysates may run through a third protein. These calls come from enrichment with a bait or labelling near it, and not all partners need be listed. Where a sequence is shown, tags or fusion partners need not be part of it.

T1: TAP-tagged YGL227W (vid30) (S. cerevisiae) (UniProt P53076)
T1 sequence: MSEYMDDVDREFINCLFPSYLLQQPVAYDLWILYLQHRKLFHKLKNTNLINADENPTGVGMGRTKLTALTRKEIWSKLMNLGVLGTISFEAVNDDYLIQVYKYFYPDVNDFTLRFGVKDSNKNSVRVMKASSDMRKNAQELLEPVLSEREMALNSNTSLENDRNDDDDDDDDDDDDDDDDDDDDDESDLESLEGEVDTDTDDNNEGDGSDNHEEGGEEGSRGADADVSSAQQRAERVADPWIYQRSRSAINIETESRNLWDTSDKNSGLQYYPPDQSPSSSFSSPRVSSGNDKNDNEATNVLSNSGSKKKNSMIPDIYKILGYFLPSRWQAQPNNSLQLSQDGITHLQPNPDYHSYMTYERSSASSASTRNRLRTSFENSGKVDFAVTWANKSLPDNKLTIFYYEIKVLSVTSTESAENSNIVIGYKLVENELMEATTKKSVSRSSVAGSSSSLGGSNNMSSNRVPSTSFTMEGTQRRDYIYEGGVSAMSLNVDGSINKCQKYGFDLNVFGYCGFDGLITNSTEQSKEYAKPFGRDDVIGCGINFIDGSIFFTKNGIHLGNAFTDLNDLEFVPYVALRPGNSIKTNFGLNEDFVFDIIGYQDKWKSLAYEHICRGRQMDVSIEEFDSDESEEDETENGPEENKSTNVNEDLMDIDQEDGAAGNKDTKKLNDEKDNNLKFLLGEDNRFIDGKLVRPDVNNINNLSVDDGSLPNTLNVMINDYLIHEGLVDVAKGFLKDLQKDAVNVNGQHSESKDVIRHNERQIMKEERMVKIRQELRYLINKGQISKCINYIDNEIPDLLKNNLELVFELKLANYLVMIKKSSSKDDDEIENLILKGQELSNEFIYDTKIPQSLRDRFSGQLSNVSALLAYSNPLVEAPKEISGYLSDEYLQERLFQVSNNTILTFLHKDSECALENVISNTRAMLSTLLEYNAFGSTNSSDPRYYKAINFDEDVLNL

T2: TAP-tagged YMR135C (gid8) (S. cerevisiae) (UniProt P40208)
T2 sequence: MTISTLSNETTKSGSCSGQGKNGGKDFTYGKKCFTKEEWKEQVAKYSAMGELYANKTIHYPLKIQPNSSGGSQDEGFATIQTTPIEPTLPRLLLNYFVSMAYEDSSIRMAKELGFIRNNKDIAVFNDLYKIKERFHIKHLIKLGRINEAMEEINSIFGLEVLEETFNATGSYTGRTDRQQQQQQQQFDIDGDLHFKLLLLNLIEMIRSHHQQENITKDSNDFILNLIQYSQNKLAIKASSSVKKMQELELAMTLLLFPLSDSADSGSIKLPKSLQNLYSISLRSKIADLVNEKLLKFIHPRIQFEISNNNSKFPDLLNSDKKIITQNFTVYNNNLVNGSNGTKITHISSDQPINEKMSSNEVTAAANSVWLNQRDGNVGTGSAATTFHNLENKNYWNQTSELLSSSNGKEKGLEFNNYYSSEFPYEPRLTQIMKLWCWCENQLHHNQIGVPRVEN


Assays:
[1] = target: T1, TAP-tagged YGL227W (vid30) (S. cerevisiae); assay: affinity purification with mass spectrometry; tandem affinity purification (IgG and calmodulin columns) of the TAP-tagged protein from extracts of yeast cells (3 liters), native level of expression; SDS-PAGE with silver staining, bands identified by MALDI-TOF MS, other half of the mixture by LC-MS MS; TAP-tagged YGL227W also purified from the YDR255CΔ strain (all other members still co-purified)
[2] = target: T2, TAP-tagged YMR135C (gid8) (S. cerevisiae); assay: as above

Binder | binding [1] | binding [2]
YDR255C (protein, UniProt Q12508 1-421) MSELLDSFETEFAKFYTDSNLEETNLQKCLDHTHEFKSQLKKLKAHLNKHIQESKPEVYNKLSDKEKQKFKRKRELIIEKLSKSQRQWDHSVKKQIKYVSQQSNRFNKSTLNKLKEFDIDSVYVNKLPKETMENVNEAIGYHILRYSIDNMPLGNKNEAFQYLKDVYGITNKESTEFIEMGQIVHDLKKGDTESCLKWCSNEMESLSSNHTALSSLKFDLYTLSAMQIVKHGNPVELYYQITQNAPLDCFRHREKELMQNVVPLLTKSLIGQPIEDIDSKVNKELKECTSLFIKEYCAAKHIFFDSPLFLIVLSGLISFQFFIKYKTIRELAHVDWTTKDELPFDVKLPDFLTHFHPIFICPVLKEETTTENPPYSLACHHIISKKALDRLSKNGTITFKCPYCPVNTSMSSTKKVRFVML | binds | binds
YGL227W (vid30) (protein, UniProt P53076 1-958) MSEYMDDVDREFINCLFPSYLLQQPVAYDLWILYLQHRKLFHKLKNTNLINADENPTGVGMGRTKLTALTRKEIWSKLMNLGVLGTISFEAVNDDYLIQVYKYFYPDVNDFTLRFGVKDSNKNSVRVMKASSDMRKNAQELLEPVLSEREMALNSNTSLENDRNDDDDDDDDDDDDDDDDDDDDDESDLESLEGEVDTDTDDNNEGDGSDNHEEGGEEGSRGADADVSSAQQRAERVADPWIYQRSRSAINIETESRNLWDTSDKNSGLQYYPPDQSPSSSFSSPRVSSGNDKNDNEATNVLSNSGSKKKNSMIPDIYKILGYFLPSRWQAQPNNSLQLSQDGITHLQPNPDYHSYMTYERSSASSASTRNRLRTSFENSGKVDFAVTWANKSLPDNKLTIFYYEIKVLSVTSTESAENSNIVIGYKLVENELMEATTKKSVSRSSVAGSSSSLGGSNNMSSNRVPSTSFTMEGTQRRDYIYEGGVSAMSLNVDGSINKCQKYGFDLNVFGYCGFDGLITNSTEQSKEYAKPFGRDDVIGCGINFIDGSIFFTKNGIHLGNAFTDLNDLEFVPYVALRPGNSIKTNFGLNEDFVFDIIGYQDKWKSLAYEHICRGRQMDVSIEEFDSDESEEDETENGPEENKSTNVNEDLMDIDQEDGAAGNKDTKKLNDEKDNNLKFLLGEDNRFIDGKLVRPDVNNINNLSVDDGSLPNTLNVMINDYLIHEGLVDVAKGFLKDLQKDAVNVNGQHSESKDVIRHNERQIMKEERMVKIRQELRYLINKGQISKCINYIDNEIPDLLKNNLELVFELKLANYLVMIKKSSSKDDDEIENLILKGQELSNEFIYDTKIPQSLRDRFSGQLSNVSALLAYSNPLVEAPKEISGYLSDEYLQERLFQVSNNTILTFLHKDSECALENVISNTRAMLSTLLEYNAFGSTNSSDPRYYKAINFDEDVLNL |  | binds
YDL176W (protein, UniProt Q12027 1-708) MATGRIQFAVSTPCNTKGKPSGYRLFEFKNDRLALVPSERGCTKVDVNANIQAFCYLRPNGRDTSISPDATHILDSCDYMVLAKSNGFIEIISNYQYKIKNGLRLAPSYILRCTPEDFESNFFSDYMIAGLEYSQGLLYCCMCSGRIYVFVMNLPTDYIQYKNMYNPMFPDCFFKVHHDNNTTHSSEEEKLFEGSTRYTGRSCSKHICYFLLPIEPSHLRSSPVVSSFCNMYQGLPIYRPSMYLHIERGISTFHINPLDRFCFMTVSPRSPLFIRKIILPLTYVTFLSTFISLKNSIQGDTCGEILSWDNVAQQNGFGSLFSWISNKFTFDTDIINSTIWDDIVKYSGTGMLDSGIVWKQRQGHAKDDIYELFHTQDMLGSSRRNSSFSTASSEPRPLSRRRRESFQALTRDAFRERMDVPCSTKWELDSFIRGLRRNTFMVDFEIVEKISHRNGNDGVNEDDNTTDESDETMTSFLTDNYKKMDIVCIDHFVTLSAFRPRYYDEPIIKIDSLSNKNGSENGTNEEEWAESQMKVDGQVIDDETAQFKQALGNLCSFKKLFMLDDSLCFILDTHGVLLINRFEIKNTKNLLRNSKDTIRIIPHDFGLINDTIVIINDIDVGTDNVCALTFHLVVTSMAGEITVLKGEFFKNCRLGRIKLCDSLKLNRKDRFVDKLALIDYDGLNAQKRRLDYDEKDLYTFIVKKVKRD | binds | binds
YBR105C (protein, UniProt P38263 1-362) MINNPKVDSVAEKPKAVTSKQSEQAASPEPTPAPPVSRNQYPITFNLTSTAPFHLHDRHRYLQEQDLYKCASRDSLSSLQQLAHTPNGSTRKKYIVEDQSPYSSENPVIVTSSYNHTVCTNYLRPRMQFTGYQISGYKRYQVTVNLKTVDLPKKDCTSLSPHLSGFLSIRGLTNQHPEISTYFEAYAVNHKELGFLSSSWKDEPVLNEFKATDQTDLEHWINFPSFRQLFLMSQKNGLNSTDDNGTTNAAKKLPPQQLPTTPSADAGNISRIFSQEKQFDNYLNERFIFMKWKEKFLVPDALLMEGVDGASYDGFYYIVHDQVTGNIQGFYYHQDAEKFQQLELVPSLKNKVESSDCSFEFA | binds | 

The remaining lines, values ahead:

binding [1] | binding [2] | Binder
binds | binds | YIL017C (protein, UniProt P40547 1-921) MTVAYSLENLKKISNSLVGDQLAKVDYFLAPKCQIFQCLLSIEQSDGVELKNAKLDLLYTLLHLEPQQRDIVGTYYFDIVSAIYKSMSLASSFTKNNSSTNYKYIKLLNLCAGVYPNCGFPDLQYLQNGFIQLVNHKFLRSKCKIDEVVTIIELLKLFLLVDEKNCSDFNKSKFMEEEREVTETSHYQDFKMAESLEHIIVKISSKYLDQISLKYIVRLKVSRPASPSSVKNDPFDNKGVDCTRAIPKKINISNMYDSSLLSLALLLYLRYHYMIPGDRKLRNDATFKMFVLGLLKSNDVNIRCVALKFLLQPYFTEDKKWEDTRTLEKILPYLVKSFNYDPLPWWFDPFDMLDSLIVLYNEITPMNNPVLTTLAHTNVIFCILSRFAQCLSLPQHNEATLKTTTKFIKICASFAASDEKYRLLLLNDTLLLNHLEYGLESHITLIQDFISLKDEIKETTTESHSMCLPPIYDHDFVAAWLLLLKSFSRSVSALRTTLKRNKIAQLLLQILSKTYTLTKECYFAGQDFMKPEIMIMGITLGSICNFVVEFSNLQSFMLRNGIIDIIEKMLTDPLFNSKKAWDDNEDERRIALQGIPVHEVKANSLWVLRHLMYNCQNEEKFQLLAKIPMNLILDFINDPCWAVQAQCFQLLRNLTCNSRKIVNILLEKFKDVEYKIDPQTGNKISIGSTYLFEFLAKKMRLLNPLDTQQKKAMEGILYIIVNLAAVNENKKQLVIEQDEILNIMSEILVETTTDSSSNGNDSNLKLACLWVLNNLLWNSSVSHYTQYAIENGLEPGHSPSDSENPQSTVTIGYNESVAGGYSRGKYYDEPDGDDSSSNANDDEDDDNDEGDDEGDEFVRTPAAKGSTSNVQVTRATVERCRKLVEVGLYDLVRKNITDESLSVREKARTLLYHMDLLLKVK
binds | binds | YIL097W (protein, UniProt P40492 1-516) MAEKSIFNEPDVDFHLKLNQQLFHIPYELLSKRIKHTQAVINKETKSLHEHTAALNQIFEHNDVEHDELALAKITEMIRKVDHIERFLNTQIKSYCQILNRIKKRLEFFHELKDIKSQNSGTSHNGNNEGTRTKLIQWYQSYTNILIGDYLTRNNPIKYNSETKDHWNSGVVFLKQSQLDDLIDYDVLLEANRISTSLLHERNLLPLISWINENKKTLTKKSSILEFQARLQEYIELLKVDNYTDAIVCFQRFLLPFVKSNFTDLKLASGLLIFIKYCNDQKPTSSTSSGFDTEEIKSQSLPMKKDRIFQHFFHKSLPRITSKPAVNTTDYDKSSLINLQSGDFERYLNLLDDQRWSVLNDLFLSDFYSMYGISQNDPLLIYLSLGISSLKTRDCLHPSDDENGNQETETATTAEKEVEDLQLFTLHSLKRKNCPVCSETFKPITQALPFAHHIQSQLFENPILLPNGNVYDSKKLKKLAKTLKKQNLISLNPGQIMDPVDMKIFCESDSIKMYPT
binds |  | YMR135C (gid8) (protein, UniProt P40208 1-455) MTISTLSNETTKSGSCSGQGKNGGKDFTYGKKCFTKEEWKEQVAKYSAMGELYANKTIHYPLKIQPNSSGGSQDEGFATIQTTPIEPTLPRLLLNYFVSMAYEDSSIRMAKELGFIRNNKDIAVFNDLYKIKERFHIKHLIKLGRINEAMEEINSIFGLEVLEETFNATGSYTGRTDRQQQQQQQQFDIDGDLHFKLLLLNLIEMIRSHHQQENITKDSNDFILNLIQYSQNKLAIKASSSVKKMQELELAMTLLLFPLSDSADSGSIKLPKSLQNLYSISLRSKIADLVNEKLLKFIHPRIQFEISNNNSKFPDLLNSDKKIITQNFTVYNNNLVNGSNGTKITHISSDQPINEKMSSNEVTAAANSVWLNQRDGNVGTGSAATTFHNLENKNYWNQTSELLSSSNGKEKGLEFNNYYSSEFPYEPRLTQIMKLWCWCENQLHHNQIGVPRVEN
